Data taken from article PMC6515687.
Where two headings read alike, the source gives them in different places. Results are given in words; binding and its absence hold for the method and conditions named. Binding seen in cells or lysates may run through a third protein. Some entries that bind do so weakly or less than the wild type. For some of these results: Tags and fused reporters may be left off the sequences shown.

Protein sequences, listed by entry. Tags and fused reporters are not part of them.
UniProt Q6PDM2: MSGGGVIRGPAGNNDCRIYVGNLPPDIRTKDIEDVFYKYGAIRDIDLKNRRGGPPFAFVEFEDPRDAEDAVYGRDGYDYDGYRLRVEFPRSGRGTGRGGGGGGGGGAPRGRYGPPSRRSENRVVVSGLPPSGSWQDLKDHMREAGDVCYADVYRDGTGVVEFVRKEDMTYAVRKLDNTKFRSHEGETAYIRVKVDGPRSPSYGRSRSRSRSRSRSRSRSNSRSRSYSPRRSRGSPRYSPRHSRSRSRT

What was measured:
[1] = target: T1, FLAG-MOV10 (mouse) (UniProt P23249); assay: co-IP; FLAG-MOV10 co-expressed with HA-SRSF1, HA-DDX5 or HA-DDX17 in HEK293T, 48 h; lysis in 50 mM Tris, 150 mM NaCl, 1 mM EDTA, 0.5% Triton, 10% glycerol; IP with anti-FLAG or anti-HA on protein A beads, 4 °C 3 h; western blot with anti-FLAG and anti-HA
T1 sequence: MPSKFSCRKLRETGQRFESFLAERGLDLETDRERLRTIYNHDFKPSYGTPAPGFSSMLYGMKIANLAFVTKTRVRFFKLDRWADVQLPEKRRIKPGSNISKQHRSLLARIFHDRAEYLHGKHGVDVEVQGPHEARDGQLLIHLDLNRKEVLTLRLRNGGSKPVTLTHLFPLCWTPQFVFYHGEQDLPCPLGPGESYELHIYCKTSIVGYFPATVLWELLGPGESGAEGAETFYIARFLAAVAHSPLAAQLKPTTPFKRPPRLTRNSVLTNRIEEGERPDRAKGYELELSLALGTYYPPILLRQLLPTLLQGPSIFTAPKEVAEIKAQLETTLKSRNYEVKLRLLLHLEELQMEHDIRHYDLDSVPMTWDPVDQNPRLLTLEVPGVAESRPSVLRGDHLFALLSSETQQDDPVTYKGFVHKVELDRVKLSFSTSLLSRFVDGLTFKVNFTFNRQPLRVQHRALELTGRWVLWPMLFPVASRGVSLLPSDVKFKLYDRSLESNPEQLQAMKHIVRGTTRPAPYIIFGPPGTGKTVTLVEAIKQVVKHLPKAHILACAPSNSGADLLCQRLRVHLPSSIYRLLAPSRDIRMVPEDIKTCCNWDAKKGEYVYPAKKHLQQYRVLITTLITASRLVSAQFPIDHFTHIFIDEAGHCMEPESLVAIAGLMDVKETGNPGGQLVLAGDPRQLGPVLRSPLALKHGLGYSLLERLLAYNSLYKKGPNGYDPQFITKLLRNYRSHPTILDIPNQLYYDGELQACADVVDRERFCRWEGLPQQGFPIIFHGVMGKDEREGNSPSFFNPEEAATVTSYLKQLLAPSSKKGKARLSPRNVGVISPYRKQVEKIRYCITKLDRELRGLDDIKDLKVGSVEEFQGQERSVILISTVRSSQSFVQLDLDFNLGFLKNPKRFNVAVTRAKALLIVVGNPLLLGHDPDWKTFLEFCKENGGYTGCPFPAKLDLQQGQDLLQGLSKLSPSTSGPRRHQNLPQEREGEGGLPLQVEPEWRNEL

[2] = target: T2, MOV10 (Moloney leukemia virus 10), endogenous, nuclear fraction of P10 mouse testis (mouse (endogenous in P10 testis)) (UniProt P23249); assay: co-IP; endogenous MOV10 IP from nuclear lysate of P10 mouse testis, western blot of the IP complex (Fig. 7d)
T2 sequence: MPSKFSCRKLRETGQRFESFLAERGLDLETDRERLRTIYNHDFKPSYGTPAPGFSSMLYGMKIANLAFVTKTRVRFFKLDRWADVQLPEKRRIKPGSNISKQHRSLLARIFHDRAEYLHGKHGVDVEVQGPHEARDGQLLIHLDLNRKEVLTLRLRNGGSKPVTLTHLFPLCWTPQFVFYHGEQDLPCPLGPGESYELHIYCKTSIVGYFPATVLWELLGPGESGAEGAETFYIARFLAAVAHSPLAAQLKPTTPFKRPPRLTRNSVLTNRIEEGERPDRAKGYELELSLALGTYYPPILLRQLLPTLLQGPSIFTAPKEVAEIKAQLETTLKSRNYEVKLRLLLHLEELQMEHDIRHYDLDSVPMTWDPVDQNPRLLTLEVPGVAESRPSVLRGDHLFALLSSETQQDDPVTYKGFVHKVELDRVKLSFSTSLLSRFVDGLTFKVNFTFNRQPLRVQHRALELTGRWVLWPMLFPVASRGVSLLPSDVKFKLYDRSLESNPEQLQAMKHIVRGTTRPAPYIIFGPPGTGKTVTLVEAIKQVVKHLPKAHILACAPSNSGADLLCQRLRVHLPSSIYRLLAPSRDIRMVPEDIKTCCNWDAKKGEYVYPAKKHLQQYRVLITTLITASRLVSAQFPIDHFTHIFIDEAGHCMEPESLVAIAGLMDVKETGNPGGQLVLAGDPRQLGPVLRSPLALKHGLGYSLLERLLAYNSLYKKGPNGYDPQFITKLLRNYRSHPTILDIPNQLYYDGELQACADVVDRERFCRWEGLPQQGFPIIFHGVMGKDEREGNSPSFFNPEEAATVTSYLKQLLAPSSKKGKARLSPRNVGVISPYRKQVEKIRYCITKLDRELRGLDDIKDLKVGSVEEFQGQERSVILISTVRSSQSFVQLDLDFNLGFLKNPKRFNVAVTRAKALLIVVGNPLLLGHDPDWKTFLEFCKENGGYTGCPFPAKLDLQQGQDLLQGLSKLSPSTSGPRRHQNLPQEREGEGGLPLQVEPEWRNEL

[3] = target: T2, MOV10 (Moloney leukemia virus 10), endogenous, nuclear fraction of P10 mouse testis (mouse (endogenous in P10 testis)); assay: as above; remark: listed apart in the source
[4] = target: HA-SRSF1 (mouse) (UniProt Q6PDM2); assay: co-IP; FLAG-MOV10 co-expressed with HA-SRSF1, HA-DDX5 or HA-DDX17 in HEK293T, 48 h; lysis in 50 mM Tris, 150 mM NaCl, 1 mM EDTA, 0.5% Triton, 10% glycerol; IP with anti-FLAG or anti-HA on protein A beads, 4 °C 3 h; western blot with anti-FLAG and anti-HA

HA-SRSF1 (from UniProt Q6PDM2 1-248)
binding [1]: binds

SRSF1, endogenous, P10 mouse testis (from UniProt Q6PDM2 1-248)
binding [2]: binds

B1: MOV10L1 (Moloney leukemia virus 10 like-1), endogenous, P10 mouse testis (protein, UniProt Q99MV5 1-1187)
chain: MIDDLIYFSNDAVTSTVLLNVGQEVIAVVEENKVSNGLKAIRVEAVSDKWEDDSKNSSKGLSDSSPRVLIGCVTSMLEGAGYISQTTYFSLESVCEGFHPCKGDWVEAEYWIRPGTWSSEAISVKPLRYKRVDKVCISSLCGRNGVIEDSIFFSLDSLKLPEGYIPRRHDIVNAVVVESSQSCYIWRALCMTPVKRDATLGEAPQEPYGALLLKNKGDIEVTRMTSFGTLKEGESKSIVIWIENKGKFSRELVSCRLANWDKAHQFRFETQGRSKSCPGAAAGSVPEGENVNSLNHHREDKTDEIPESRLANSTEISPDGCACKEESREKGNTPEKQEPEPGGLIPPGEKTHIVVTCSAKNPGRCKELLLLCFSDFLIGRHLEVSVVSSEEALIAVREPFSWKKPKSSQTLVSAKTTVVVTTQKRNSRRQLPSFLPQYPIPDRLKKCVEQKIDILTFQPLLAELLNMSNYKEKFSTLLWLEEIHAEIELKEYNMSRVVLKRKGDLLVLEVPGLAESRPSLYAGDKLILKSQEYNGHVIEYIGYVMEIHEEDVTLKLNPGFEQMYNFEPMDVEFTYNRTTSRRCHYALEQVIHLGVKVLFPEEIILQSPQVTGNWSLAQDTKNDGQSITNITRNDGQSMTKVTRNDSQSITNIIRNDGQSITNVTRNDGQPITKVTRNNSQSITNITRNDGQPITKNKKTVKDQTKHTTEERHVGTTDQPEKASSTAETMDEIQIPKARDKEFFNPVLNENQKLAVRRILSGDCRPLPYILFGPPGTGKTVTIIEAVLQVHYALPDSRILVCAPSNSAADLVCLRLHESKVPKPAAMVRVNATCRFEETIIDAIKPYCRDGEDIWRASRFRIIITTCSSAGLFYQIGVRVGYFTHVFVDEAGQASEPECLIPLGLISDINGQIVLAGDPMQLGPVIKSRLAMAYGLNVSMLERLMSRPAYLRDENAFGACGAYNPLLVTKLVKNYRSHSALLALPSRLFYHRELEVCADPKVVTSLLGWEKLPRKGFPLIFHGVRGNEAREGRSPSWFSPAEAVQVMRYCCLLARSVSSQVSSKDIGVITPYRKQVEKIKILLRNVDLTDIKVGSVEEFQGQEYLVIVISTVRSNEDRFEDDRYFLGFLSNSKRFNVAITRPKALLIILGNPHVLVRDPCFGALLEYSVSNGVYTGCDLPPELQALQK
binding [3]: no binding

B2: FLAG-MOV10 (protein, UniProt P23249 1-1004)
chain: MPSKFSCRKLRETGQRFESFLAERGLDLETDRERLRTIYNHDFKPSYGTPAPGFSSMLYGMKIANLAFVTKTRVRFFKLDRWADVQLPEKRRIKPGSNISKQHRSLLARIFHDRAEYLHGKHGVDVEVQGPHEARDGQLLIHLDLNRKEVLTLRLRNGGSKPVTLTHLFPLCWTPQFVFYHGEQDLPCPLGPGESYELHIYCKTSIVGYFPATVLWELLGPGESGAEGAETFYIARFLAAVAHSPLAAQLKPTTPFKRPPRLTRNSVLTNRIEEGERPDRAKGYELELSLALGTYYPPILLRQLLPTLLQGPSIFTAPKEVAEIKAQLETTLKSRNYEVKLRLLLHLEELQMEHDIRHYDLDSVPMTWDPVDQNPRLLTLEVPGVAESRPSVLRGDHLFALLSSETQQDDPVTYKGFVHKVELDRVKLSFSTSLLSRFVDGLTFKVNFTFNRQPLRVQHRALELTGRWVLWPMLFPVASRGVSLLPSDVKFKLYDRSLESNPEQLQAMKHIVRGTTRPAPYIIFGPPGTGKTVTLVEAIKQVVKHLPKAHILACAPSNSGADLLCQRLRVHLPSSIYRLLAPSRDIRMVPEDIKTCCNWDAKKGEYVYPAKKHLQQYRVLITTLITASRLVSAQFPIDHFTHIFIDEAGHCMEPESLVAIAGLMDVKETGNPGGQLVLAGDPRQLGPVLRSPLALKHGLGYSLLERLLAYNSLYKKGPNGYDPQFITKLLRNYRSHPTILDIPNQLYYDGELQACADVVDRERFCRWEGLPQQGFPIIFHGVMGKDEREGNSPSFFNPEEAATVTSYLKQLLAPSSKKGKARLSPRNVGVISPYRKQVEKIRYCITKLDRELRGLDDIKDLKVGSVEEFQGQERSVILISTVRSSQSFVQLDLDFNLGFLKNPKRFNVAVTRAKALLIVVGNPLLLGHDPDWKTFLEFCKENGGYTGCPFPAKLDLQQGQDLLQGLSKLSPSTSGPRRHQNLPQEREGEGGLPLQVEPEWRNEL
binding [4]: binds
